# Experimental data from PubChem BioAssay AID1487 (National Center for Advancing Translational Sciences (NCATS), 2009).
# Values joined by “and” are separate entries in the source; they are usually repeats but may differ in a detail not shown here. Equal entries are not always repeated. This is one part of the list. Shown are side measurements of this screen, not its main read-out; they come without a call. Compounds called inactive in the main read-out are mostly missing here. The note in brackets gives the kind of curve behind each potency; many fits are weak.
# Assay: qHTS Assay for Modulators of Lamin A Splicing
# Conditions: HeLa LMNA splicing GFP/RFP minigene ratio, 48 h
# Procedure, shortened: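 Read-out is the ratio of GFP to DsRed2 object intensity, acquired by 488 nm laser-scanning cytometry on HeLa lamin A-EGFP minigene reporter cells. Compound incubation 48 hrs at 37 °C in Opti-MEM with 2% FBS; DMSO 0.5% final.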
# [1] = measured here: RFP viability control channel
# [2] = measured here: GFP splicing reporter channel
SMILES,AC50 [1],AC50 [2]
O=C(Nc1ccccc1SCC1CSc2nc3ccccc3c(=O)n21)c1ccccc1 (centres undefined),"10 µM [rising, partial curve, poor fit]",–
O=C(Nc1ccc(F)c(Cl)c1)c1cc(S(=O)(=O)NCc2ccc3c(c2)OCO3)ccc1F,"28.2 µM [falling, single point]","35.5 µM [falling, single point]"
CC(C)CC(O)(CC(C)C)C(=O)NNc1ccccc1,–,"22.4 µM [rising, single point]"
Cc1sc2nc(C3CC3)nc(NCCNS(C)(=O)=O)c2c1C,"11.2 µM [rising, single point]",–
C[n+]1cccc(C(=O)NNC(=O)C23CC4CC(CC(C4)C2)C3)c1,"0.398 µM [falling, full curve]",–
Cc1ccc(NC(=O)N2CCN(C(=O)c3nsc4ccccc34)CC2)cc1C,"1.58 µM [rising, partial curve]","0.794 µM [rising, full curve]"
CCOC(=O)Cc1nn(CC)c(=O)c2ccccc12,–,"1.41 µM [falling, single point]"
Cc1sc2ncnc(N/N=C/c3ccc(O)cc3)c2c1C,"0.0631 µM [rising, full curve]",–
C[C@]12CCC(=O)C=C1CC[C@@H]1[C@@H]2CC[C@@]2(C)[C@H]1CC[C@]2(O)C(=O)CO,"5.01 nM [falling, full curve, poor fit] and 6.31 µM [falling, single point]","0.00501 µM [falling, full curve, poor fit]"
Nc1c(C(=O)NCCc2ccc(Cl)cc2)sc2ccc(S(=O)(=O)N3CCCCC3)cc12,"12.6 µM [rising, single point]",–
COc1ccc(COc2ccc(C3C(S(=O)(=O)c4ccccc4)CON3C)cc2OC)cc1 (centres undefined),"1.12 µM [falling, partial curve, poor fit]",–
CCN(CC)S(=O)(=O)c1cccc(-c2nnc(SCC(=O)c3ccc(Cl)s3)n2C)c1,–,"14.1 µM [rising, single point]"
Oc1ccccc1CNc1cnc2ccccc2c1,"35.5 µM [rising, single point]",–
COC(=O)c1cccc(NC(=O)CN(c2ccc3c(c2)OCO3)S(C)(=O)=O)c1C,"0.00447 µM [rising, full curve, poor fit]","0.00501 µM [rising, full curve, poor fit]"
COC(=O)C(=C/C=C/c1cccnc1)C(=O)OC,"1.78 µM [rising, partial curve, poor fit]","6.31 µM [rising, partial curve]"
O=C(c1cc(-c2cccs2)nc2ccccc12)N1CCN(c2ccccc2O)CC1,"11.2 µM [rising, single point]",–
Cc1ccc(-c2nc3ccccc3s2)cc1NC(=S)NC(=O)/C=C/c1ccco1,"11.2 µM [falling, partial curve]","10 µM [falling, partial curve]"
CCn1c(C(=O)N2CCC(C(=O)NCc3ccc4c(c3)OCO4)CC2)cc2sccc21,"35.5 µM [rising, single point]",–
Cc1cccn2c(=O)cc(COc3ccc(NC(=O)COc4ccc(F)cc4)cc3)nc12,"35.5 µM [falling, single point]","11.2 µM [falling, partial curve]"
CCOc1ccccc1NC(=O)N1CC(C)Oc2ccc(Cl)cc21 (centres undefined),–,"1.12 µM [rising, partial curve]"
O=C(NC(=S)Nc1ccc(Cc2ccncc2)cc1)c1ccccc1,"35.5 µM [rising, single point]",–
CCOC(=O)C1=C(CN(CC)Cc2ccccc2)NC(=O)NC1c1ccc(OC)cc1 (centres undefined),–,"0.02 µM [falling, full curve, poor fit]"
Nc1cc(N2CCOCC2)c(Cl)cc1[N+](=O)[O-],–,"35.5 µM [rising, single point]"
CCS(=O)(=O)c1ccc2oc(Nc3cc(C)cc(C)c3)nc2c1,–,"12.6 µM [rising, single point]"
Cc1c(C(=O)N2CCC(C)CC2)oc2ccc(S(=O)(=O)N3CCC4(CC3)OCCO4)cc12,"22.4 µM [rising, single point]",–
Nc1nc2c(ncn2C2OC(COC(=O)c3ccccc3)C(OC(=O)c3ccccc3)C2OC(=O)c2ccccc2)c(=O)[nH]1 (centres undefined),"3.55 µM [rising, partial curve]","8.91 µM [falling, partial curve]"
COC(=O)c1cccc(NC(=O)CSc2nnc(COc3ccc(C#N)cc3)n2-c2ccccc2)c1,"28.2 µM [rising, partial curve]",–
COc1ccc(C2NCCC3(O)CCCCC23)c(OC)c1OC (centres undefined),"0.447 µM [falling, full curve, poor fit]","0.282 µM [falling, full curve]"
CCCCCCCC1=CC2=CC(=O)C(C)(OC(C)=O)C(=O)C2=CN1CCc1ccccc1 (centres undefined),"20 µM [rising, partial curve, poor fit]","35.5 µM [rising, single point]"

# Given tab-delimited: part of the list above
SMILES	AC50 [1]	AC50 [2]
CC(C)CC(O)(CC(C)C)C(=O)NNc1ccccc1	–	22.4 µM [rising, single point]
Cc1sc2nc(C3CC3)nc(NCCNS(C)(=O)=O)c2c1C	11.2 µM [rising, single point]	–
